The source of these data is PubChem BioAssay AID330 (DTP/NCI, 2004).

The test system of this assay is P388 leukemia ip, CD2F1 mice, survival T/C. In words: NCI In Vivo Anticancer Drug Screen. Data for tumor model P388 Leukemia (intraperitoneal) in CD2F1 (CDF1) mice. The settings on record: T/C endpoint: median survival time, higher T/C = longer survival.
The mark [1] stands for this setting: dose: 100.0 mg/kg/injection, schedule: Q01DX009 (ip), vehicle: saline.
Setting [2] is: dose: 200.0 mg/kg/injection, schedule: Q01DX009 (ip), vehicle: saline.
The mark [3] stands for this setting: dose: 200.0 mg/kg/injection, schedule: Q01DX005 (ip), vehicle: Klucel (hydroxypropylcellulose) (HPC).
The mark [4] stands for this setting: dose: 50.0 mg/kg/injection, schedule: Q01DX005 (ip), vehicle: Klucel (hydroxypropylcellulose) (HPC).
Setting [5] is: dose: 50.0 mg/kg/injection, schedule: Q01DX005 (ip), vehicle: saline.
[6] abbreviates: dose: 100.0 mg/kg/injection, schedule: Q01DX005 (ip), vehicle: Klucel (hydroxypropylcellulose) (HPC).
Where [7] appears, read: dose: 100.0 mg/kg/injection, schedule: Q01DX005 (ip), vehicle: saline.
Setting [8] is: dose: 200.0 mg/kg/injection, schedule: Q01DX005 (ip), vehicle: saline.
The mark [9] stands for this setting: dose: 200.0 mg/kg/injection, schedule: Q01DX009 (ip), vehicle: saline with Tween-80.
Where [10] appears, read: dose: 100.0 mg/kg/injection, schedule: Q04DX003 (ip), vehicle: saline.
[11] abbreviates: dose: 200.0 mg/kg/injection, schedule: Q04DX003 (ip), vehicle: saline.
The mark [12] stands for this setting: dose: 400.0 mg/kg/injection, schedule: Q04DX003 (ip), vehicle: saline.
The mark [13] stands for this setting: dose: 400.0 mg/kg/injection, schedule: Q01DX009 (ip), vehicle: saline.
The mark [14] stands for this setting: dose: 600.0 mg/kg/injection, schedule: Q01DX009 (ip), vehicle: saline.

The list is a part of this screen's results and no random one: it gathers tests that were run many times, whatever their T/C, doses with no T/C, and many T/C values between a quarter and a half above the control. Further doses and runs are listed elsewhere. T/C: endpoint of the treated group in % of that of the vehicle group. Some entries give survivors of the animals treated and no T/C: the source files T/C as zero there, which appears to mark a toxic dose or a test without result, not a measured value. Some doses without a T/C left all or most animals alive at the check, yet need not have been tolerated: the source hardly ever lists a survival T/C far under the control, and the zero likely stands for such cases as well. Survivors were counted at the toxicity check, usually on the fifth day, unless a day is given; later deaths do not show. Schedule codes are those of the source, read here as Q, the interval in days (D) or hours (H), X, the number of doses. Some doses were run more than once; the values are given in rising order. Where survival is the endpoint, the PubChem record calls one and a half times the control and up active, and a quarter to a half above the control has no call in these data; cut-offs in other NCI protocols can differ. Some T/C values carry the count of animals alive at the toxicity check (mostly the fifth day); without a count, all were alive then.

As to `Clc1ccc(C2=CSC3=NCCN23)cc1`, the survivor count reads like this: (dose: 50.0 mg/kg/injection, schedule: Q01DX009 (ip), vehicle: Klucel (hydroxypropylcellulose) (HPC)) 6 of 6; (dose: 100.0 mg/kg/injection, schedule: Q01DX009 (ip), vehicle: Klucel (hydroxypropylcellulose) (HPC)) 0 of 6.

Consider `O=[N+]([O-])c1ncccc1NCCN1CCCC1`, for which the survivor count was 1 of 6 under setting [1] and 0 of 6 under setting [2].

Turning to `O=C1C(Br)=C(Nc2ccccc2)C(=O)C(Br)=C1Nc1ccccc1`, the survivor count under setting [3] is given as 5 of 5.

For the molecule `CN1C2C=C(c3ccc(Cl)cc3)CC1CC2` (stereo unspecified), the survivor count runs as follows: under setting [4], 1 of 6; under setting [5], 1 of 6; under setting [6], 0 of 6; under setting [7], 0 of 6; under setting [3], 0 of 6; under setting [8], 0 of 6.

For the molecule `O=C1C=C(NCCCC2CCCN3CCCCC23)C(=O)c2ccccc21` (stereo unspecified), the survivor count by setting is: under setting [4], 0 of 6; under setting [6], 0 of 6; under setting [3], 0 of 6.

For `CC(C)(C)c1ccc(C(=O)NNC(O)C(F)(F)F)cc1` (stereo unspecified), the survivor count (dose: 400.0 mg/kg/injection, schedule: Q04DX002 (ip), vehicle: Klucel (hydroxypropylcellulose) (HPC)) is 0 of 6.

Take `CN(C)c1ccc(/C=C/C(=O)c2ccc(Nc3ccnc4cc(Cl)ccc34)cc2)cc1`: the survivor count is 6 of 6 (dose: 100.0 mg/kg/injection, schedule: Q04DX002 (ip), vehicle: saline with Tween-80) and 6 of 6 (dose: 200.0 mg/kg/injection, schedule: Q04DX002 (ip), vehicle: saline with Tween-80).

For the molecule `CS(=O)(=O)c1nc(N)c(S(N)(=O)=O)c(N)n1`, the survivor count was 6 of 6 (dose: 200.0 mg/kg/injection, schedule: Q01DX009 (ip), vehicle: Klucel (hydroxypropylcellulose) (HPC)) and 6 of 6 (dose: 400.0 mg/kg/injection, schedule: Q01DX009 (ip), vehicle: Klucel (hydroxypropylcellulose) (HPC)).

Take `Cc1cc(=O)oc2cc(OC(=O)Nc3ccc(Cl)c(Cl)c3)ccc12`: the survivor count is, setting by setting: (dose: 6.25 mg/kg/injection, schedule: Q01DX009 (ip), vehicle: saline) 6 of 6; (dose: 25.0 mg/kg/injection, schedule: Q01DX009 (ip), vehicle: saline) 6 of 6; (dose: 50.0 mg/kg/injection, schedule: Q01DX009 (ip), vehicle: saline with Tween-80) 6 of 6; (dose: 100.0 mg/kg/injection, schedule: Q01DX009 (ip), vehicle: saline with Tween-80) 6 of 6; under setting [9], 5 of 6.

On to `CN=C(c1ccc(NC(=O)c2cccc(C(=O)Nc3ccc(C(=NC)N(C)C4CCCCC4)cc3)c2)cc1)N(C)C1CCCCC1`, for which the survivor count by setting is: (dose: 6.25 mg/kg/injection, schedule: Q01DX005 (ip), vehicle: Klucel (hydroxypropylcellulose) (HPC)) 0 of 6; (dose: 6.25 mg/kg/injection, schedule: Q01DX005 (ip), vehicle: saline) 1 of 6; (dose: 12.5 mg/kg/injection, schedule: Q01DX005 (ip), vehicle: saline) 0 of 6; (dose: 25.0 mg/kg/injection, schedule: Q01DX005 (ip), vehicle: saline) 0 of 6; under setting [5], 0 of 6; under setting [7], 0 of 6. Moreover, under setting [8], the survivor count is 0 of 6.

Take `CN(C)CCOC(=O)Nc1cc(Cl)cc(Cl)c1`: the survivor count (dose: 240.0 mg/kg/injection, schedule: Q01DX005 (ip), vehicle: saline with Tween-80) was 2 of 6.

For the molecule `O=[n+]1c2ccccc2n([O-])c2cc(Cl)ccc21`, the T/C (dose: 25.0 mg/kg/injection, schedule: Q01DX009 (ip), vehicle: saline with Tween-80) was 139 % of control. Also, the survivor count under setting [9] was 5 of 6 and 6 of 6; the survivor count (dose: 400.0 mg/kg/injection, schedule: Q01DX009 (ip), vehicle: saline with Tween-80) was 1 of 6.

For the molecule `CCCCCCOC(CN(C)C)C(Cl)(Cl)Cl` (stereo unspecified), the T/C (dose: 200.0 mg/kg/injection, schedule: Q01DX009 (ip), vehicle: suspension in saline) is 133 % of control [5 of 6 alive].

With `CC[N+](C)(CC)C/C(C)=C(/c1ccccc1S(=O)(=O)N(C)C)C(C)C[N+](C)(CC)CC` (stereo unspecified), the survivor count by setting is: (dose: 50.0 mg/kg/injection, schedule: Q04DX003 (ip), vehicle: saline) 3 of 6; under setting [10], 0 of 6; under setting [11], 0 of 6; under setting [12], 0 of 6.

In the case of `C/C(=N/NC(N)=S)c1cn[nH]c1C`, the survivor count by setting is: (dose: 60.0 mg/kg/injection, schedule: Q01DX005 (ip), vehicle: Klucel (hydroxypropylcellulose) (HPC)) 1 of 6; (dose: 120.0 mg/kg/injection, schedule: Q01DX005 (ip), vehicle: Klucel (hydroxypropylcellulose) (HPC)) 0 of 6; (dose: 240.0 mg/kg/injection, schedule: Q01DX005 (ip), vehicle: Klucel (hydroxypropylcellulose) (HPC)) 0 of 6.

`[Br][Pt+2][Br].[NH-]C(c1ccccc1)C([NH-])c1ccccc1` (stereo unspecified): the T/C (dose: 12.5 mg/kg/injection, schedule: Q04DX002 (ip), vehicle: saline with Tween-80) is 128 % of control; the T/C (dose: 25.0 mg/kg/injection, schedule: Q04DX002 (ip), vehicle: saline with Tween-80) is 128 and 132 % of control; the T/C (dose: 50.0 mg/kg/injection, schedule: Q04DX002 (ip), vehicle: saline with Tween-80) is 131 and 132 % of control.

Regarding `CCOP(=O)(O)C1CCCC(C)[N-]1.CCOP(=O)(O)C1CCCC(C)[N-]1.[Mn+2]` (stereo unspecified), where the note is “dose: 400.0 mg/kg/injection, schedule: Q04DX003 (ip), vehicle: Klucel (hydroxypropylcellulose) (HPC)”, the survivor count is recorded as 1 of 6.

As for `COc1ccc(-n2c(C)c(COC(C)=O)c(COC(C)=O)c2C)cc1`, the survivor count (dose: 50.0 mg/kg/injection, schedule: Q01DX009 (ip), vehicle: saline) was 4 of 6.

Turning to `C[CH2][Sn]1([CH2]C)[O]C2C(OC)OC3COC(c4ccccc4)OC3C2[O]1` (stereo unspecified), the T/C (dose: 12.5 mg/kg/injection, schedule: Q04DX003 (ip), vehicle: saline) was 128 % of control. In addition, the survivor count reads like this: (dose: 25.0 mg/kg/injection, schedule: Q04DX003 (ip), vehicle: saline) 1 of 6; under setting [10], 0 of 6; under setting [11], 0 of 6; under setting [12], 0 of 6.

In the case of `Cc1c(O)cccc1O`, the survivor count under setting [2] is recorded as 0 of 6, the survivor count under setting [13] is 0 of 6 and the survivor count under setting [14] was 0 of 6.

In the case of `O=C1c2ccccc2C(=O)c2c(NCCN3CCCCC3)ccc(NCCN3CCCCC3)c21`, the survivor count reads like this: (dose: 200.0 mg/kg/injection, schedule: Q01DX009 (ip), vehicle: other) 3 of 6; (dose: 400.0 mg/kg/injection, schedule: Q01DX009 (ip), vehicle: other) 0 of 6.

For `O=[N+]([O-])c1ccc(O)c(O)c1`, the survivor count runs as follows: under setting [1], 0 of 6; under setting [2], 0 of 6; under setting [13], 0 of 6; under setting [14], 0 of 6.

As to `O=[N+]([O-])c1ccccc1C(Nc1nncs1)Nc1nncs1`, the T/C (dose: 400.0 mg/kg/injection, schedule: Q01DX005 (ip), vehicle: Klucel (hydroxypropylcellulose) (HPC)) is 136 % of control.

`S=C(NNc1nnc(-c2ccccc2)c(-c2ccccc2)n1)Nc1ccccc1`: the survivor count by setting is: (dose: 100.0 mg/kg/injection, schedule: Q01DX005 (ip), vehicle: saline with Tween-80) 6 of 6; (dose: 200.0 mg/kg/injection, schedule: Q01DX005 (ip), vehicle: saline with Tween-80) 6 of 6.

Regarding `CCC(C)(C)NCCCCCNc1cc(OC)cc2cccnc12`, under setting [3], the survivor count is on record as 0 of 6.
